This note sets out measurements from US11214540B2, “Compositions for treating neurodegenerative diseases” (COGNITION THERAPEUTICS, INC., priority 2017, dated 2022).

By UniProt entry, the sequences of proteins in these tests, tags left out.
UniProt Q99720, whole entry: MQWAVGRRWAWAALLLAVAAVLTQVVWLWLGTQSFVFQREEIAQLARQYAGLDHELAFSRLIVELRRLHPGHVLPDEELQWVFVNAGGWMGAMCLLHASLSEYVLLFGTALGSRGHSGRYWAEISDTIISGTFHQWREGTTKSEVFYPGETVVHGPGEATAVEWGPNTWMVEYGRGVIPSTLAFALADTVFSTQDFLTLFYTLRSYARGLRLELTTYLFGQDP

This assay has as its target Sigma-1 receptors on Jurkat cell membranes (Homo sapiens (Human), UniProt Q99720). In words: Competitive Radioligand Binding Assay 1, Sigma-1 binding ([3H](+)pentazocine displacement). The settings on record: read-out: S1 Ki; sigma-1 receptor affinity.

SMILES strings stand for the structures. The source holds more than one record for some entries. This list holds those alone. There may be further records. Values given together read as repeated measurements (runs, samples, wells or individuals).

In the case of `CC(C)=CC(CC(C)(C)c1ccc(Cl)cc1)N1CCC(C2CCOCC2)CC1` (stereo not shown) [Compound 11], the Ki is 14 nM and 69 nM.
